Laboratory results as given in PubChem BioAssay AID651898 (Broad Institute, 2012).
This is one part of the list. Shown are side measurements of this screen, not its main read-out; they come without a call.

assay: cytotoxicity in HepG2 cells, dose response, cytotoxicity control, cell-based, plate reader, cherry-pick, two tests (AID 651898); settings: measured here: replicate test 2 max activity; at 6 µM unless noted

Row | Structure (SMILES) | max activity
1 | O=C(C[C@@H]1C[C@@H]2c3cc(NC(=O)c4cccnc4)ccc3O[C@@H]2[C@@H](CO)O1)NCCc1ccccc1 | -15%
2 | CCNC(=O)[C@H]1[C@H](CO)[C@H]2Cn3c(ccc(-c4ccccc4)c3=O)[C@H]2N1C(=O)Cc1cccnc1 | 10.4% [at 0.8 µM]
3 | COc1ccccc1NC(=O)N[C@@H]1CC[C@H](CCn2cc(-c3cccnc3)nn2)O[C@H]1CO | -10.8% [at 26 µM]
4 | CO[C@H]1CN(C)C(=O)c2ccc(NC(C)=O)cc2OC[C@@H](C)N(C(=O)c2ccc(F)cc2)C[C@H]1C | -12.7% [at 3 µM]
5 | O=C(c1ccncc1)N1CC[C@@H]2[C@H](CO)Nc3ccc(Br)cc3[C@@H]21 | 9.17% [at 0.195 µM]
6 | C/C=C/c1ccc2c(c1)O[C@@H](CN(C)C(=O)c1ccc3c(c1)OCO3)[C@@H](C)CN([C@@H](C)CO)S2(=O)=O | 20.2% [at 0.38 µM]
7 | CN1c2ccc(-c3cccc(F)c3)cc2[C@H]2[C@H](CCN2C(=O)C2CC2)[C@H]1CO | 12.4% [at 0.75 µM]
8 | O=C(C[C@H]1C[C@H]2c3cc(NC(=O)c4cccnc4)ccc3O[C@H]2[C@H](CO)O1)NCc1ccccn1 | -4.68% [at 1.6 µM]
9 | O=C(c1ccc2c(c1)OCO2)N1CC[C@@H]2[C@H](CO)Nc3ccc(-c4ccc(F)cc4)cc3[C@@H]21 | -13.9%
10 | CN1c2ccc(-c3cccc(F)c3)cc2[C@@H]2[C@@H](CCN2C(=O)c2ccncc2)[C@H]1CO | -8.13%
11 | CCC(=O)N1CC[C@@H]2[C@@H](CO)N(C)c3ccc(-c4cccc(F)c4)cc3[C@@H]21 | 5.55% [at 1.6 µM]
12 | CCNC(=O)[C@@H]1[C@@H](CO)[C@@H]2Cn3c(ccc(-c4cccnc4)c3=O)[C@@H]2N1Cc1ccc2c(c1)OCO2 | 16.2% [at 0.38 µM]
13 | COC(=O)C[C@H]1CC[C@@H]2[C@H](COC[C@@H](O)CN2C(=O)Nc2cccc(F)c2)O1 | -10.3%
14 | COC(=O)[C@@H]1[C@@H](CO)[C@@H]2Cn3c(ccc(-c4ccccc4)c3=O)[C@@H]2N1Cc1cccc(F)c1 | -16.8% [at 13.5 µM]
15 | O=C(N[C@@H]1CC[C@H](CCn2cc(-c3cccnc3)nn2)O[C@@H]1CO)c1ccccc1F | -8.82% [at 3 µM]
16 | COCCNC(=O)C[C@@H]1CC[C@@H]2[C@H](COc3ccc(NC(=O)Nc4cccc(F)c4)cc3C(=O)N2C)O1 | 13%
17 | C[C@@H]1CN([C@H](C)CO)C(=O)Cc2cc(NC(=O)Cn3cnnn3)ccc2O[C@H]1CN(C)Cc1ccc2c(c1)OCO2 | -9.47% [at 0.75 µM]
18 | COc1ccccc1S(=O)(=O)N1CC[C@@H]2[C@H](CO)Nc3ccc(-c4ccccc4)cc3[C@@H]21 | -6.95% [at 23.5 µM]
19 | COCCNC(=O)C[C@H]1CC[C@@H]2[C@@H](COc3ccc(NC(=O)Nc4cccc(F)c4)cc3C(=O)N2C)O1 | -11.3% [at 23.5 µM]
20 | C[C@@H]1CN([C@H](C)CO)C(=O)c2cc(C#Cc3cccnc3)cnc2O[C@H]1CN(C)S(C)(=O)=O | 16.9% [at 0.8 µM]

Row | Structure (SMILES) | max activity
21 | CN1c2ccc(-c3cccc(F)c3)cc2[C@H]2[C@H](CCN2C(=O)C2CCOCC2)[C@H]1CO | 8.43% [at 0.38 µM]
22 | COc1cccc(NC(=O)N2C[C@H](O)COC[C@@H]3O[C@@H](CC(=O)N(C)C)CC[C@H]32)c1 | 13.1%
23 | COc1cccc(-c2ccc3c(c2)[C@H]2[C@H](CCN2C(=O)C2CCC2)[C@@H](CO)N3)c1 | -8.62% [at 26 µM]
24 | CNC(=O)C[C@H]1CC[C@@H]2[C@H](COC[C@@H](O)CN2C(=O)Nc2ccc3c(c2)OCO3)O1 | -9.95% [at 1.6 µM]
25 | C[C@H](CO)N1C[C@H](C)[C@@H](CN(C)Cc2ccc3c(c2)OCO3)Oc2ccc(NC(=O)Cn3cnnn3)cc2CC1=O | -14.3%
26 | O=C(C[C@@H]1C[C@H]2c3cc(NC(=O)c4cccnc4)ccc3O[C@H]2[C@@H](CO)O1)NCc1cc(F)ccc1F | -8.47% [at 23.5 µM]
27 | C/C=C/c1ccc2c(c1)O[C@@H](CN(C)C(=O)Nc1ccc(F)cc1)[C@@H](C)CN([C@@H](C)CO)S2(=O)=O | -14.5%
28 | O=C(c1ccccc1F)N1CC[C@@H]2[C@H](CO)Nc3ccc(Br)cc3[C@@H]21 | -7.95% [at 0.38 µM]
29 | COC(=O)C[C@@H]1CC[C@@H]2[C@H](COC[C@@H](O)CN2C(=O)Nc2cccc(F)c2)O1 | -6.07% [at 0.8 µM]
30 | O=C(N[C@H]1CC[C@@H](CCn2cc(-c3cccnc3)nn2)O[C@H]1CO)c1ccccc1F | -6.22% [at 26 µM]
31 | O=C(Cc1ccccc1)N1CC[C@@H]2[C@H](CO)Nc3ccc(Br)cc3[C@@H]21 | 15.2% [at 26 µM]
32 | CCC(=O)N1CC[C@@H]2[C@H]1c1cc(-c3cccc(F)c3)ccc1N(C)[C@@H]2CO | -21% [at 0.38 µM]
33 | O=C(C1CC1)N1CC[C@@H]2[C@H]1c1cc(Br)ccc1N[C@@H]2CO | 39.3% [at 26 µM]
34 | C/C=C/c1ccc2c(c1)O[C@@H](CN(C)C(=O)Nc1ccccc1)[C@H](C)CN([C@H](C)CO)S2(=O)=O | -9.7% [at 0.38 µM]
35 | COc1ccc(-c2ccc3c(c2)[C@H]2[C@H](CCN2C(=O)Cc2cccnc2)[C@H](CO)N3C)cc1 | 9.68% [at 12 µM]
36 | CC(C)(C)[S@](=O)N1Cc2cc(C(=O)NCc3ccccc3F)nc(-c3cccc(-c4cccnc4)c3)c2[C@@H]1CCO | -7.97% [at 0.35 µM]
37 | O=C(C1CCOCC1)N1CC[C@@H]2[C@H](CO)Nc3ccc(Br)cc3[C@@H]21 | 5.45% [at 0.8 µM]
38 | CN1c2ccc(-c3ccccc3)cc2[C@H]2[C@H](CCN2C(=O)c2ccccc2F)[C@H]1CO | -14.5% [at 3 µM]
39 | O=C(C[C@H]1C[C@@H]2c3cc(NC(=O)c4cccnc4)ccc3O[C@@H]2[C@@H](CO)O1)NCC(F)(F)F | -9.14% [at 0.195 µM]
40 | COCCNC(=O)C[C@@H]1CC[C@@H]2[C@@H](COc3ccc(NC(=O)Nc4cccc(F)c4)cc3C(=O)N2C)O1 | 16.9% [at 0.195 µM]

Part of the list above, tab-delimited:
Row	Structure (SMILES)	max activity
24	CNC(=O)C[C@H]1CC[C@@H]2[C@H](COC[C@@H](O)CN2C(=O)Nc2ccc3c(c2)OCO3)O1	-9.95% [at 1.6 µM]
25	C[C@H](CO)N1C[C@H](C)[C@@H](CN(C)Cc2ccc3c(c2)OCO3)Oc2ccc(NC(=O)Cn3cnnn3)cc2CC1=O	-14.3%
26	O=C(C[C@@H]1C[C@H]2c3cc(NC(=O)c4cccnc4)ccc3O[C@H]2[C@@H](CO)O1)NCc1cc(F)ccc1F	-8.47% [at 23.5 µM]
